Test results reported in the supplement of paper PMC10849652.
The other results are listed elsewhere or left out.

Amino acid sequences for entries named in this document (tags omitted). A change or cut given only in a name is not applied to a line headed by its entry.
UniProt Q9BUP3: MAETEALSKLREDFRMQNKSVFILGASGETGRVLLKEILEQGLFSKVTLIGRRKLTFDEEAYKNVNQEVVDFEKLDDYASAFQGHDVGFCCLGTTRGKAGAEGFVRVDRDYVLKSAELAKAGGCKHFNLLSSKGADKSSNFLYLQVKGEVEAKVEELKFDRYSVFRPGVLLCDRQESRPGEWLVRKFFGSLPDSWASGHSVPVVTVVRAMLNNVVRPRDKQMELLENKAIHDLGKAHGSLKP
UniProt Q9H6K1: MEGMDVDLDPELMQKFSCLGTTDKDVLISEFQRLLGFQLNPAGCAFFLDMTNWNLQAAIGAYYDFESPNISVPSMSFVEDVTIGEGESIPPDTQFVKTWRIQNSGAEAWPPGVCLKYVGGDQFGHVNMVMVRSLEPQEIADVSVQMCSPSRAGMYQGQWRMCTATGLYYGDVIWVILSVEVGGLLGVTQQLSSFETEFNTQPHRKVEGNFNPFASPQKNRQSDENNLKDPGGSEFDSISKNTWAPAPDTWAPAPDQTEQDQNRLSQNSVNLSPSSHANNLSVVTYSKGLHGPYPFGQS
UniProt Q9H0C8: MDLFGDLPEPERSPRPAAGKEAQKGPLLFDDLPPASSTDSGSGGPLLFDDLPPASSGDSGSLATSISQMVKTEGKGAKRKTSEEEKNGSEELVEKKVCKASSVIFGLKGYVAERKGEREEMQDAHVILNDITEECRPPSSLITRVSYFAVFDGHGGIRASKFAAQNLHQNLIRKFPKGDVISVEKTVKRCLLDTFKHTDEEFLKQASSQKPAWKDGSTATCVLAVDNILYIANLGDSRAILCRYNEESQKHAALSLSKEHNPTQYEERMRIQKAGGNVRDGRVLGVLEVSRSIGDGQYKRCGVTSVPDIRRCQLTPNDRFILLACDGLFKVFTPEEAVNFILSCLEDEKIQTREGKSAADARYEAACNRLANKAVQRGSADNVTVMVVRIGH
UniProt Q96CB8, whole entry, looked up: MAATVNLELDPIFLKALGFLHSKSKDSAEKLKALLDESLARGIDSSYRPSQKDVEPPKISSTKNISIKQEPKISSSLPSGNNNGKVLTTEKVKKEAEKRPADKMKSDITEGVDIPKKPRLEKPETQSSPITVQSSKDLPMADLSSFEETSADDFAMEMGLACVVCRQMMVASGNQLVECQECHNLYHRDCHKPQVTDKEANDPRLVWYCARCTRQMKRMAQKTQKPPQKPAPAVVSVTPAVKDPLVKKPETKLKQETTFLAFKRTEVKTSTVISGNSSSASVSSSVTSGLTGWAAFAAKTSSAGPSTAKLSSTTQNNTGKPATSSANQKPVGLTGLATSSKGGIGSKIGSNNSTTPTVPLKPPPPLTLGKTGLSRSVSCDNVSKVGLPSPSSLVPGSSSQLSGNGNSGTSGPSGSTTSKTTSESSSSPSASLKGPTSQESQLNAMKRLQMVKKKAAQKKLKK
UniProt Q13422: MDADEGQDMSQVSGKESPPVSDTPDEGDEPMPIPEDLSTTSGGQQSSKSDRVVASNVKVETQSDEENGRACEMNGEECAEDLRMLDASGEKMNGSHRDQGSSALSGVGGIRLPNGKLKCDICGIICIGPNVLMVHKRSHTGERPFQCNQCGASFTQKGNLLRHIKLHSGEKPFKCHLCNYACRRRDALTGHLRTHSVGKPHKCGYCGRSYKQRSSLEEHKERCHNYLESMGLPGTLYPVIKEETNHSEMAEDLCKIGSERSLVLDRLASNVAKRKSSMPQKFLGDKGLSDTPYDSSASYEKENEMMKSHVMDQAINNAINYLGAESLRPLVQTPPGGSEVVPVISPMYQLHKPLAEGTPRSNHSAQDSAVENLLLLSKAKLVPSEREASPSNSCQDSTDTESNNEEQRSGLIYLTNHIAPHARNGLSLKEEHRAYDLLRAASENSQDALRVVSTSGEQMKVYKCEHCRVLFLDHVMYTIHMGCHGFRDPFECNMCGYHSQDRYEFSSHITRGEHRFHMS
UniProt Q9BT40: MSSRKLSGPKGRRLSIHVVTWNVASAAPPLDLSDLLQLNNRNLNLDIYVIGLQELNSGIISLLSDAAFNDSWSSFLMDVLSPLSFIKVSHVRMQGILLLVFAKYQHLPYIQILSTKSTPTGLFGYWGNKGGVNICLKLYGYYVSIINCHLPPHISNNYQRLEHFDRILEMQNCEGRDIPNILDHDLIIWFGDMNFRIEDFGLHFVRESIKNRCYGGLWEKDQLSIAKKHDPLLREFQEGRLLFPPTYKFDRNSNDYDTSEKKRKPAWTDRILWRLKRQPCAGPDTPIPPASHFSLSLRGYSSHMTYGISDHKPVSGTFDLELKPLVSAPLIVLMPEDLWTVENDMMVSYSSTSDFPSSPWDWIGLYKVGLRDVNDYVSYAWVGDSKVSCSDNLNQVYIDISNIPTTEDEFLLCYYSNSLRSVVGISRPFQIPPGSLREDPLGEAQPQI
UniProt O43464: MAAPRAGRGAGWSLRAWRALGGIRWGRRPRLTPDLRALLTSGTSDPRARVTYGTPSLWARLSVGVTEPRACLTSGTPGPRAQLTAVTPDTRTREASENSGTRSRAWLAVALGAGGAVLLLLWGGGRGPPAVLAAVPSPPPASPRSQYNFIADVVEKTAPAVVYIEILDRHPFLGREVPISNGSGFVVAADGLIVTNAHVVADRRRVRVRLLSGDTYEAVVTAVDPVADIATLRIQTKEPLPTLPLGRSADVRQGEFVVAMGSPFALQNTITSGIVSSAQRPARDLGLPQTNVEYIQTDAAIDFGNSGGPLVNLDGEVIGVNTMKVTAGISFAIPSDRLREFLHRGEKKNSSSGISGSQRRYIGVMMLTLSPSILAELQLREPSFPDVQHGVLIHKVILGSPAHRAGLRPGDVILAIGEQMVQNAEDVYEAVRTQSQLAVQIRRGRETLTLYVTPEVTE
UniProt Q14116, whole entry, looked up: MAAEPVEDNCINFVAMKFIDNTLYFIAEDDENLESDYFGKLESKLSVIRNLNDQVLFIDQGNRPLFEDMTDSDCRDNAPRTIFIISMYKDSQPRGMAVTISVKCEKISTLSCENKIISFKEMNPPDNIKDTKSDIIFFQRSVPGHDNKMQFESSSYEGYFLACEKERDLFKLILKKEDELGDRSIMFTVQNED
UniProt P10809, whole entry, looked up: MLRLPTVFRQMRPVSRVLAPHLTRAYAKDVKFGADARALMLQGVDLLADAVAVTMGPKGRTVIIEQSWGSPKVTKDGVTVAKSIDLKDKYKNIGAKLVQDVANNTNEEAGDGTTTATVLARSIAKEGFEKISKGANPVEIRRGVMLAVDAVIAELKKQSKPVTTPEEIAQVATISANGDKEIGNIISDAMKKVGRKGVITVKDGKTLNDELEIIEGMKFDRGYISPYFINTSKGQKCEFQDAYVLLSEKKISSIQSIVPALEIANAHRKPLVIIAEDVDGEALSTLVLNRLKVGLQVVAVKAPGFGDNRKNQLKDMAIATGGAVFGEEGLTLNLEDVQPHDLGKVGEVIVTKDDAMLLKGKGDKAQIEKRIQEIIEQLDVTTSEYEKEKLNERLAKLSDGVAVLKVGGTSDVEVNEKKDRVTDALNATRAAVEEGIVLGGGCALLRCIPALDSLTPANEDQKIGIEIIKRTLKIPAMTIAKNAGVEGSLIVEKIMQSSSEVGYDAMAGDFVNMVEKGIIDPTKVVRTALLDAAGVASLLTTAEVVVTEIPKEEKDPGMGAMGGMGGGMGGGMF
UniProt P80217: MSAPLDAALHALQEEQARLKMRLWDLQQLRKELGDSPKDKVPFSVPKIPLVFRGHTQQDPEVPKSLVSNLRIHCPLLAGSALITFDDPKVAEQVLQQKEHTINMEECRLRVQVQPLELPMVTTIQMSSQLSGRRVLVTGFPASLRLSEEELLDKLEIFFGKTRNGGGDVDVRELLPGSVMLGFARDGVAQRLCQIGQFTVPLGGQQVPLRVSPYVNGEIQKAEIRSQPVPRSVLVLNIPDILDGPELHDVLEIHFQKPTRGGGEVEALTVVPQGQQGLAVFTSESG
UniProt Q9NVR2, whole entry, looked up: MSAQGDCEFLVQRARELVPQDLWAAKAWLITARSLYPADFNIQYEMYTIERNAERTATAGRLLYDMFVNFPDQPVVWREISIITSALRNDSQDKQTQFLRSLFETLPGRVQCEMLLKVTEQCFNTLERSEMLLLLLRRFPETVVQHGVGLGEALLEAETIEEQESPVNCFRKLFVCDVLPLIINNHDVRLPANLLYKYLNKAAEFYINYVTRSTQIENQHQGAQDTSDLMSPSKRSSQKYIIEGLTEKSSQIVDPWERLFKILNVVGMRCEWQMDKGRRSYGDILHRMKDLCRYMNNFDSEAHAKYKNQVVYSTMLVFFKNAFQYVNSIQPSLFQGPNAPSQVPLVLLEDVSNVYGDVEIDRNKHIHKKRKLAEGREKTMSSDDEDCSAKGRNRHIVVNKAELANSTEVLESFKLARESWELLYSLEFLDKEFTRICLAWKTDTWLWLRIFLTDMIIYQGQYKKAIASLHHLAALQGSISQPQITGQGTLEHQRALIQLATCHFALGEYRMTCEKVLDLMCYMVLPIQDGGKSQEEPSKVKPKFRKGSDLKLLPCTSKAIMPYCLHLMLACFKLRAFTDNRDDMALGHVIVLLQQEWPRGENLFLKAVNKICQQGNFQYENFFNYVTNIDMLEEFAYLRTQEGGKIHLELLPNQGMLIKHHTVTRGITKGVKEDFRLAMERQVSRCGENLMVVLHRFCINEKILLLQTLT
UniProt Q9NZL4: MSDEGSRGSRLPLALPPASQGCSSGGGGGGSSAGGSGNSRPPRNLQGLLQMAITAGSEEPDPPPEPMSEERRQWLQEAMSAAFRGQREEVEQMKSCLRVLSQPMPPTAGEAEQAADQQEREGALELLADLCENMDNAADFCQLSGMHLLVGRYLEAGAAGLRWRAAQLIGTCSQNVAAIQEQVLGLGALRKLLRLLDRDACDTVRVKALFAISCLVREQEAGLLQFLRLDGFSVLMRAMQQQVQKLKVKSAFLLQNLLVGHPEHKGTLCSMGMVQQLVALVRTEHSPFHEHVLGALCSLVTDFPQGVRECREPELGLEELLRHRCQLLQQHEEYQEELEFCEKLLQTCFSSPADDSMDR
UniProt Q6UWB1, whole entry, looked up: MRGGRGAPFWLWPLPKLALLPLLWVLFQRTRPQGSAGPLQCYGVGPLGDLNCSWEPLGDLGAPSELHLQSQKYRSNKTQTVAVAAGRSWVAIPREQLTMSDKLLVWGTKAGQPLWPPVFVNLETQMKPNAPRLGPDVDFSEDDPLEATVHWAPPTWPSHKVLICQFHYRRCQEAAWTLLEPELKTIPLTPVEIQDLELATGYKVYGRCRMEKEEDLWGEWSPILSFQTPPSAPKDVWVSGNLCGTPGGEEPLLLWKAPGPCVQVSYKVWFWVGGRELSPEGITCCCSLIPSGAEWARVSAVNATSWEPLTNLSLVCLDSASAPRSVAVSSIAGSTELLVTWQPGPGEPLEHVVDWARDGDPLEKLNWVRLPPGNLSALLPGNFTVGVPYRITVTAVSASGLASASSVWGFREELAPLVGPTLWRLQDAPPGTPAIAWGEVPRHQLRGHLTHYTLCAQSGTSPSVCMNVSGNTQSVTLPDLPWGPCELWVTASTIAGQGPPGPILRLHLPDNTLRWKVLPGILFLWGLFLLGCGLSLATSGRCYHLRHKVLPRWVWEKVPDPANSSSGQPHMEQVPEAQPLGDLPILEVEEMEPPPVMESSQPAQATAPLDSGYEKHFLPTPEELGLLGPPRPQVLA
UniProt P48735: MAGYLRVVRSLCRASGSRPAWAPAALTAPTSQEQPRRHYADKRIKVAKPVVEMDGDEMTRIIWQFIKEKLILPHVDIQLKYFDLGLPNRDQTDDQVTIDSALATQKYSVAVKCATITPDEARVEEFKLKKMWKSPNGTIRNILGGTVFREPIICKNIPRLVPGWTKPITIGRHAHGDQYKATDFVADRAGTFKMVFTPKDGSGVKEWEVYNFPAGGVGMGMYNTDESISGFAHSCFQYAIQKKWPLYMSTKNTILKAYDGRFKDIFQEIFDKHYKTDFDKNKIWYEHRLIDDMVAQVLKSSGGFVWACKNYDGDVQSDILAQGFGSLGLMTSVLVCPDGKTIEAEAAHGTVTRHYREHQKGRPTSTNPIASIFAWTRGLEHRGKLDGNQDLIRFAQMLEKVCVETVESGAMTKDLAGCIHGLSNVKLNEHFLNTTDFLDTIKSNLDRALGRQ
UniProt Q13478: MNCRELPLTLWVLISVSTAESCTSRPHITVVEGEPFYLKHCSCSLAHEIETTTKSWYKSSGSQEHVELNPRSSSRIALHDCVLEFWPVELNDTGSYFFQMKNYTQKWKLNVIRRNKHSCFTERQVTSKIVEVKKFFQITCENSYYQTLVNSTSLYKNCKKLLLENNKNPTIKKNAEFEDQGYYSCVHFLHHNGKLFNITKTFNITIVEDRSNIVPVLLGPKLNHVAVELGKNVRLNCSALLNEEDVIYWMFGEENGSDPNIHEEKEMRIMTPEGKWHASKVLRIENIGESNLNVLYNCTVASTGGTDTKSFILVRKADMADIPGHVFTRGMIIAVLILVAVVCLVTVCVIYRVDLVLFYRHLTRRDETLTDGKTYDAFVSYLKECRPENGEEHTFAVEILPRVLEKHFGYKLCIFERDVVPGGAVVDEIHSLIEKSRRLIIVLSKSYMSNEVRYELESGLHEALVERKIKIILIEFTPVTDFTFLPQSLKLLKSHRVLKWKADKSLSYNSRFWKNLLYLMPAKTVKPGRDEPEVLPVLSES

Key:
Experiment in all cases: log2 fold change, soluble protein after heating vs DMSO (PISA); higher = thermal stabilisation; K562 lysate, 10 uM; active = over 0.2 and 3.5 SD of the protein, either way, in both replicates (recomputed)
[1] = compound: CS(=O)(=O)CCNCc1ccc(-c2ccc3ncnc(Nc4ccc(OCc5cccc(F)c5)c(Cl)c4)c3c2)o1 [lapatinib]
Method in brief: (§1)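 The values are log-two fold changes in thermal stability compared with solvent controls and come from duplicates. They were obtained by TMTpro 16plex LC-MS/MS, with channel sums equalised, on the supernatant after 21,000xg for 90 min. That supernatant came from crude K562 extract at 1 mg/mL protein treated with 10 μM compound for 30 min, heated for 3 min across 48°C-58°C, pooled and brought to 0.5% NP-40 at 4°C.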

[2] = compound: CS(=O)(=O)N1CCN(Cc2cc3nc(-c4cccc5[nH]ncc45)nc(N4CCOCC4)c3s2)CC1 [pictilisib]
Method in brief: as §1

[3] = compound: C[C@@H](Oc1cc(-c2cnn(C3CCNCC3)c2)cnc1N)c1c(Cl)ccc(F)c1Cl [crizotinib]
Method in brief: as §1

[4] = compound: C[C@H](C1=CC=C(C=C1)C(=O)NC2=C3C=CNC3=NC=C2)N
Method in brief: as §1

[5] = compound: C[C@H](Nc1ncnc2nc[nH]c12)c1cc2cccc(Cl)c2c(=O)n1-c1ccccc1 [duvelisib]
Method in brief: as §1

[6] = compound: Cc1cc(Nc2cc(CN3CCOCC3)c3nc(C)c(Cc4ccc(Cl)cc4F)n3n2)n[nH]1 [gandotinib]
Method in brief: as §1

[7] = compound: Cc1cc(Nc2cc(N3CCN(C)CC3)nc(Sc3ccc(NC(=O)C4CC4)cc3)n2)n[nH]1 [tozasertib]
Method in brief: as §1

[8] = compound: Cc1ccc(-n2nc(C(C)(C)C)cc2NC(=O)Nc2ccc(OCCN3CCOCC3)c3ccccc23)cc1 [doramapimod]
Method in brief: as §1

[9] = compound: Cc1ccc(NC(=O)c2ccc(CN3CC[C@H](N(C)C)C3)c(C(F)(F)F)c2)cc1Nc1nccc(-c2cncnc2)n1 [bafetinib]
Method in brief: as §1

[10] = compound: Cc1cccc(CC(=O)N2CCc3c2ccc(-c2cn(C)c4ncnc(N)c24)c3F)n1
Method in brief: as §1

Measured: log2 fold change

HTATIP2 isoform 3 (UniProt Q9BUP3)
inactive: [1] -0.017 | [2] 0.008 | [3] 0.005 | [4] 0.022 | [5] -0.007 | [6] -0.068 | [7] -0.003 | [8] 0.017 | [9] -0.042 | [10] -0.036

HTATSF1 (UniProt O43719)
inactive: [1] 0.003 | [2] 0.03 | [3] 0.006 | [4] -0.02 | [5] 0.007 | [6] -0.018 | [7] 0.026 | [8] 0.01 | [9] 0.006 | [10] 0.032

INTS1 (UniProt Q8N201)
inactive: [1] -0.051 | [2] -0.011 | [3] -0.067 | [4] 0.05 | [5] -0.04 | [6] -0.136 | [7] 0.007 | [8] -0.001 | [9] -0.164 | [10] 0.031

ILRUN (UniProt Q9H6K1)
inactive: [1] -0.045 | [2] -0.033 | [3] 0.009 | [4] -0.025 | [5] 0.016 | [6] 0.012 | [7] 0.013 | [8] -0.028 | [9] -0.023 | [10] -0.017

ILKAP (UniProt Q9H0C8)
inactive: [1] 0.04 | [2] 0.049 | [3] 0.026 | [4] 0.022 | [5] 0.007 | [6] -0.052 | [7] 0.031 | [8] 0.029 | [9] 0.001 | [10] -0.021

IKBIP isoform 4 (UniProt Q70UQ0)
inactive: [1] -0.005 | [2] -0.049 | [3] 0.004 | [4] -0.024 | [5] -0.004 | [6] 0.024 | [7] 0.018 | [8] -0.027 | [9] -0.027 | [10] 0.026

INTS12 (UniProt Q96CB8)
inactive: [1] -0.084 | [2] 0.043 | [3] 0 | [4] 0.015 | [5] -0.062 | [6] -0.018 | [7] 0.013 | [8] 0.051 | [9] -0.16 | [10] -0.024

IGHMBP2 (UniProt P38935)
inactive: [1] 0.251 | [2] -0.059 | [3] -0.007 | [5] -0.004 | [7] 0.047 | [8] 0.022 | [9] 0.007

IKZF1 (UniProt Q13422)
inactive: [1] 0.018 | [2] -0.114 | [3] 0.068 | [4] 0.03 | [5] 0.001 | [6] -0.089 | [7] -0.058 | [8] -0.022 | [9] 0 | [10] -0.162

INPP5K (UniProt Q9BT40)
inactive: [1] 0.027 | [2] 0.004 | [3] -0.04 | [4] -0.082 | [5] 0.032 | [6] 0.033 | [7] 0 | [8] 0.076 | [9] -0.108 | [10] 0.149

INPPL1 (UniProt O15357)
inactive: [1] 0.023 | [2] 0.006 | [3] -0.047 | [4] -0.05 | [5] -0.004 | [6] -0.065 | [7] 0.029 | [8] 0.01 | [9] -0.05 | [10] 0.03

HTRA2 (UniProt O43464)
inactive: [1] -0.028 | [2] -0.021 | [3] -0.023 | [4] -0.064 | [5] -0.012 | [6] 0.058 | [7] 0.019 | [8] 0.008 | [9] -0.026 | [10] 0.047

IL18 (UniProt Q14116)
inactive: [1] -0.019 | [2] 0.005 | [3] 0 | [4] -0.073 | [5] -0.009 | [6] 0.058 | [7] -0.011 | [8] -0.025 | [9] -0.012 | [10] 0.028

HSPD1 (UniProt P10809)
inactive: [1] 0.001 | [2] -0.012 | [3] 0 | [4] 0 | [5] 0.003 | [6] 0.05 | [7] 0.003 | [8] -0.013 | [9] -0.003 | [10] 0.017

IFI35 isoform 2 (UniProt P80217)
inactive: [1] -0.026 | [2] -0.028 | [3] -0.019 | [4] -0.193 | [5] -0.007 | [6] 0.064 | [7] -0.021 | [8] 0.016 | [9] -0.027 | [10] 0.032

INTS10 (UniProt Q9NVR2)
inactive: [1] 0.097 | [2] -0.093 | [3] -0.04 | [4] 0.027 | [5] -0.09 | [6] -0.168 | [7] 0.011 | [8] 0.026 | [9] -0.052 | [10] 0

HSPB11 (UniProt Q9Y547)
inactive: [1] -0.021 | [2] 0.014 | [3] -0.036 | [4] -0.064 | [5] -0.025 | [6] 0.167 | [7] -0.035 | [8] -0.041 | [9] -0.058 | [10] 0.025

HSPBP1 (UniProt Q9NZL4)
inactive: [1] -0.029 | [2] 0.017 | [3] -0.015 | [4] -0.009 | [5] -0.008 | [6] 0.027 | [7] -0.021 | [8] -0.003 | [9] -0.03 | [10] 0.004

IFI30 (UniProt P13284)
inactive: [1] 0.029 | [2] 0.033 | [3] 0.019 | [4] -0.036 | [5] 0.039 | [6] 0.053 | [7] -0.042 | [8] 0.032 | [9] 0.041 | [10] 0.055

HTD2 (UniProt P86397)
inactive: [1] -0.065 | [2] 0.004 | [3] 0 | [4] -0.042 | [6] -0.11 | [7] 0.17 | [8] 0.002 | [9] -0.142 | [10] -0.006

IL27RA (UniProt Q6UWB1)
inactive: [1] 0.039 | [2] -0.052 | [3] 0.026 | [4] -0.017 | [5] 0 | [6] 0.031 | [7] 0.121 | [8] -0.074 | [9] 0.036 | [10] 0.075

HYOU1 (UniProt Q9Y4L1)
inactive: [1] -0.003 | [2] 0.017 | [3] 0.004 | [4] 0.041 | [5] 0.009 | [6] -0.024 | [7] -0.01 | [8] -0.007 | [9] 0.022 | [10] -0.018

IDH2 (UniProt P48735)
inactive: [1] -0.016 | [2] 0.006 | [3] -0.077 | [4] 0.117 | [5] 0.064 | [6] -0.122 | [7] 0.032 | [8] 0.06 | [9] -0.034 | [10] -0.072

Six successive records already listed, quoted:
INTS10 (UniProt Q9NVR2)
inactive: [1] 0.097 | [2] -0.093 | [3] -0.04 | [4] 0.027 | [5] -0.09 | [6] -0.168 | [7] 0.011 | [8] 0.026 | [9] -0.052 | [10] 0

HSPB11 (UniProt Q9Y547)
inactive: [1] -0.021 | [2] 0.014 | [3] -0.036 | [4] -0.064 | [5] -0.025 | [6] 0.167 | [7] -0.035 | [8] -0.041 | [9] -0.058 | [10] 0.025

HSPBP1 (UniProt Q9NZL4)
inactive: [1] -0.029 | [2] 0.017 | [3] -0.015 | [4] -0.009 | [5] -0.008 | [6] 0.027 | [7] -0.021 | [8] -0.003 | [9] -0.03 | [10] 0.004

IFI30 (UniProt P13284)
inactive: [1] 0.029 | [2] 0.033 | [3] 0.019 | [4] -0.036 | [5] 0.039 | [6] 0.053 | [7] -0.042 | [8] 0.032 | [9] 0.041 | [10] 0.055

HTD2 (UniProt P86397)
inactive: [1] -0.065 | [2] 0.004 | [3] 0 | [4] -0.042 | [6] -0.11 | [7] 0.17 | [8] 0.002 | [9] -0.142 | [10] -0.006

IL27RA (UniProt Q6UWB1)
inactive: [1] 0.039 | [2] -0.052 | [3] 0.026 | [4] -0.017 | [5] 0 | [6] 0.031 | [7] 0.121 | [8] -0.074 | [9] 0.036 | [10] 0.075

(list continues)

HSPA8 (UniProt P11142)
inactive: [1] 0.004 | [2] 0.022 | [3] 0.023 | [4] 0.012 | [5] 0.005 | [6] -0.014 | [7] 0.006 | [8] 0.001 | [9] 0.059 | [10] -0.01

IL18R1 (UniProt Q13478)
inactive: [1] -0.112 | [2] 0.207 | [3] -0.076 | [4] -0.116 | [5] -0.049 | [6] 0.092 | [7] 0.063 | [8] -0.111 | [9] -0.031 | [10] 0.045
